# The full ranking holds about 33,000 sequences; the median of “E-score (-0.5 to 0.5)” is about -8e-05, and the highest 2% start at about 0.23. The list shows a part of the results.
# Target: T1, Nrg2 (UniProt P38082)
# T1 sequence: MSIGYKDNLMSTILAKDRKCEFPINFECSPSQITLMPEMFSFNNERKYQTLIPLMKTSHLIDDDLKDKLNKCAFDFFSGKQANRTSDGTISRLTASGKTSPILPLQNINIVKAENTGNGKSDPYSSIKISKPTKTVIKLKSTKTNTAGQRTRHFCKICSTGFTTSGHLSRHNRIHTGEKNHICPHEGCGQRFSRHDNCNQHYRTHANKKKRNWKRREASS
# Assay: PBM E-score (8-mer binding enrichment) (E-score (-0.5 to 0.5)); higher = stronger / more preferred TF binding
# Details: protein concentration: 100 nM; construct: GST-full length
# How it was run: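 Detection of bound protein used fluorescent anti-GST, with scans normalised by masliner. The proteins were GST-tagged yeast transcription factors applied at about 100-200 nM to universal all-10-mer Agilent arrays made double-stranded by primer extension. Each ungapped eight-base word, pooled with its reverse complement, was scored with an E-score from the Universal PBM Analysis Suite.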
row,Sequence,PBM E-score
1,ATGTGCGC,0.0525
2,CCCGACCA,0.0818
3,CGCTCGGC,0.0597
4,AGGCGTAG,-0.195
5,CGGCTTCA,0.0879
6,CAGTGGAG,0.166
7,GTCCGCAC,0.136
8,GATGAGCA,0.169
9,CAATTGCA,-0.0952
10,ACGGACGT,-0.169
11,CACAAAGC,0.0422
12,AATAGAAA,0.0204
13,AAGCCCTC,-0.132
14,CTAAATGA,0.0289
15,CCGCGGGC,0.0924
16,TCATAAAA,-0.032
17,ATCAAGCC,0.0359
18,AAAGTGGT,0.0259
19,ACACATAC,0.0414
20,AAACCGAC,0.157
21,GCTCTTCC,-0.202
22,CAAAACGG,0.0312

row,Sequence,PBM E-score
1,CCTAACCG,-0.136
2,ATCTCTGA,-0.135
3,ACACTGAG,0.00229
4,CGTGCCGC,0.0137
5,ATTCATCG,0.134
6,ACTTGAAG,-0.0885
7,GCAAACTA,0.0526
8,CAGAAACA,0.131
9,AATCCGAT,0.0806
10,CCAGTGTC,-0.0246
11,GGACTGAA,0.014
12,ACGGAATG,-0.00971
13,AGCGGTTC,-0.0148
14,ACACCTAA,-0.0691
15,AACACCCT,-0.00643
16,ACAGATGA,-0.0278
17,AAACCAGA,0.119
18,ACGGGGAA,-0.076
19,AGCGATGC,-0.177
20,ATTGGTAA,0.201
21,GCGTGGCC,-0.108
22,AGAATCAT,0.0757

row,Sequence,PBM E-score
1,ACAAGTGC,-0.0992
2,CGGCCTTA,0.0601
3,CTCGAGCA,0.183
4,CTTCATCC,-0.0188
5,TTAATCAA,0.189
6,GTACTATA,0.115
7,CCGAGACC,0.0704
8,CAGGAAAC,0.043
9,AACTTACG,-0.0379
10,GGAGCAAC,-0.0766
11,ACAGCGCT,-0.00397
12,CATCACCC,0.0812
13,AAGTTGAC,-0.0031
14,AGCGAAGC,-0.168
15,GTGAAAAC,-0.00418
16,CAAAAGCA,0.00741
17,GAACCGAA,0.062
18,AAATCCGG,0.0878
19,GGGAAACC,0.182
20,CGGGGCTC,-0.13
21,AGGTAAAT,-0.0123
22,GGTGATAA,-0.0898

row,Sequence,PBM E-score
1,CGTTAATC,0.0184
2,CGAGGGGA,-0.0688
3,ACCAACCT,-0.00259
4,ATCCCCCG,-0.208
5,CTAAACAA,-0.144
6,GCTATTAC,0.026
7,GGTCAGTA,-0.108
8,GGATGCCA,-0.132
9,GGGAATAC,-0.0225
10,TAGCACTA,-0.0158
11,CCACTTGA,0.0276
12,ACAGTCTA,-0.111
13,CCTTCGGA,-0.0295
14,CGCTCAGA,-0.108
15,AACTGCCA,-0.0308
16,AGCGCATA,0.0414
17,CTTAGGTC,0.0284
18,ATCCCACG,-0.0431
19,AGCATACG,-0.0799
20,CCTATAGC,-0.042
21,ACGTCATA,-0.014
22,GCCAGATA,-0.0572

# A section from further up:
row,Sequence,PBM E-score
21,AGGTAAAT,-0.0123
22,GGTGATAA,-0.0898
1,CGTTAATC,0.0184
2,CGAGGGGA,-0.0688
3,ACCAACCT,-0.00259
4,ATCCCCCG,-0.208
5,CTAAACAA,-0.144
6,GCTATTAC,0.026
7,GGTCAGTA,-0.108
8,GGATGCCA,-0.132
9,GGGAATAC,-0.0225
10,TAGCACTA,-0.0158
11,CCACTTGA,0.0276
12,ACAGTCTA,-0.111
13,CCTTCGGA,-0.0295
14,CGCTCAGA,-0.108
15,AACTGCCA,-0.0308
16,AGCGCATA,0.0414
17,CTTAGGTC,0.0284
18,ATCCCACG,-0.0431
19,AGCATACG,-0.0799
20,CCTATAGC,-0.042
21,ACGTCATA,-0.014

# (listing goes on)

row,Sequence,PBM E-score
1,CTAATATC,0.169
2,CCGTCAGC,-0.138
3,ACCATCAA,-0.154
4,CTCACTAA,-0.00047
5,GCACAGTA,0.207
6,CGACTTTC,-0.0518
7,CATGGGAC,0.045
8,GCAGGGCC,0.101
9,AACGGTCA,0.0266
10,GGACGGAC,0.0225
11,GATGGCAA,0.0937
12,AGTCCTTG,-0.0339
13,AGTGCCCA,0.0206
14,CGCCGCTA,0.142
15,TAAAGCTA,-0.241
16,GCAAGAAA,0.117
17,ATCGTATC,0.00646
18,AACTGCCG,0.00451
19,CGCAAGAA,0.299
20,CCGAGACG,-0.0212
21,AATACCGG,0.0822
22,ATCGTCAG,-0.0719
